From paper PMC9633600

By UniProt entry, the sequences of proteins in these tests, tags left out. Where a name states a change or a piece, a line headed by the entry shows the natural chain unless it says otherwise. Chains listed by the source or under a name are the forms on record and can include a tag or linker.
UniProt P62491: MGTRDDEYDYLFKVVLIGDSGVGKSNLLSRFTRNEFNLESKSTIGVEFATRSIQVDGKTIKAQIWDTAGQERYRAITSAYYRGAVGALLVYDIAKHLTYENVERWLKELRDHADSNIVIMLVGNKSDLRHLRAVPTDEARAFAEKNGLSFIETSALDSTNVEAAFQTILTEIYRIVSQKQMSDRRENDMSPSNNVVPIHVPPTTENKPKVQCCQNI
FGFR2b-HA-APEX2 (P21802-3, form named): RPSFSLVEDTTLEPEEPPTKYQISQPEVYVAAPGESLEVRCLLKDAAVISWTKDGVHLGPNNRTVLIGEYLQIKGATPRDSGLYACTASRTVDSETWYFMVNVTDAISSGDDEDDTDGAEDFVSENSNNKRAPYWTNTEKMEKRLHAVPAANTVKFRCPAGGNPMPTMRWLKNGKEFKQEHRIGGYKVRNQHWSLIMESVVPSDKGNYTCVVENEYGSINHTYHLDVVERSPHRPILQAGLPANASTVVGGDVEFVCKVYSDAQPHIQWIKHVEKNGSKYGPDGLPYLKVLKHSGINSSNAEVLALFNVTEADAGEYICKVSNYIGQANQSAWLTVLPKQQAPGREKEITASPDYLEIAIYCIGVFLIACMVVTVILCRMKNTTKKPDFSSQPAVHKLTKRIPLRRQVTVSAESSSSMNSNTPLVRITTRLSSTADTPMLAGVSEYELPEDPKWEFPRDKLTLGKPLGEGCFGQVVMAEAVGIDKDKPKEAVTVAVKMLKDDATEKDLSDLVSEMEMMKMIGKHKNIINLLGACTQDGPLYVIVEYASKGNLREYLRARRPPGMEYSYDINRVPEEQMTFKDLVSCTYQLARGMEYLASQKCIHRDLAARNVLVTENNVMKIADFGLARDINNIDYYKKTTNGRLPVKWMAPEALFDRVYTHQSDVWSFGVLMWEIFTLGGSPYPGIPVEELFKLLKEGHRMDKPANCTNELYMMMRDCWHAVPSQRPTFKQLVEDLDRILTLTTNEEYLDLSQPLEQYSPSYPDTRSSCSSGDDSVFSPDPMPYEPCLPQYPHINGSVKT
UniProt Q8N122: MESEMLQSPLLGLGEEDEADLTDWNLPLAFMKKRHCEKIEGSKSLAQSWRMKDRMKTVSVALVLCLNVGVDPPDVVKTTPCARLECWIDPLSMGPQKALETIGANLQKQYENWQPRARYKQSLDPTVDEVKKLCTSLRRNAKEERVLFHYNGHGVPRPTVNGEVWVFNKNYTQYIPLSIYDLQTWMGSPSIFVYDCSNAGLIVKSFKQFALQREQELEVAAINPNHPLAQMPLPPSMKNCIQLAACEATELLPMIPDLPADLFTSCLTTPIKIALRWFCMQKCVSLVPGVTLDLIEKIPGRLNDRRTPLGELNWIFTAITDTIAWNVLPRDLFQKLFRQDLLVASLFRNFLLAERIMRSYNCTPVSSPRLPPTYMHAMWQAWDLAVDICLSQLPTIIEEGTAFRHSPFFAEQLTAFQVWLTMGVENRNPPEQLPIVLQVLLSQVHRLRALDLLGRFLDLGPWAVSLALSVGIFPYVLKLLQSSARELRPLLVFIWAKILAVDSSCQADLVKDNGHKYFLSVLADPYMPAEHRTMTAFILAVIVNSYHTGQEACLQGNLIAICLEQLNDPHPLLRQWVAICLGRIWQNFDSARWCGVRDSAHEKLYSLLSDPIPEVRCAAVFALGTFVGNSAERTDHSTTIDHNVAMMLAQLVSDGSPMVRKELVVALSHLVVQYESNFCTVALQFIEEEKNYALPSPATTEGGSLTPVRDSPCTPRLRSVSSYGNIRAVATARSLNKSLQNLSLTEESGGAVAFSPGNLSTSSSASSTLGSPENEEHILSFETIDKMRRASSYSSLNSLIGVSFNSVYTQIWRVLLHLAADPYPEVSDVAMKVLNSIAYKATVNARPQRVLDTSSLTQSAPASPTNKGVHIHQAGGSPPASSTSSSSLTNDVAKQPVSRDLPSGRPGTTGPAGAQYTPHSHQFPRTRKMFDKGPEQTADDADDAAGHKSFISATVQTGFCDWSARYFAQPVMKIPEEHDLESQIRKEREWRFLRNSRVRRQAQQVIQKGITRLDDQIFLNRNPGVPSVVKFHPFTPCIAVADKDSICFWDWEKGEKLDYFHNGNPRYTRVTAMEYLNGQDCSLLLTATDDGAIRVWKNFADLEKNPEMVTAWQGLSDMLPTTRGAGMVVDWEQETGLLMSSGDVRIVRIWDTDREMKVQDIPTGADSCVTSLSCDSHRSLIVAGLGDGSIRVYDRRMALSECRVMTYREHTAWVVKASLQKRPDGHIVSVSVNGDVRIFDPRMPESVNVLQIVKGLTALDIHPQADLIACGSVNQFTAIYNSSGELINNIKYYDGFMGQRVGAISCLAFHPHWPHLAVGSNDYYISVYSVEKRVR

Key:
[1] = target: eGFP-RAB11-APEX2 (UniProt P62491); assay: proximity labelling; APEX2 fused to the bait in living cells; biotin-phenol 40 min, H2O2 1 min, quenched with Trolox and sodium ascorbate; streptavidin beads pull-down 2 h RT; bound proteins immunoblotted against supernatant and total lysate; cells untreated or FGF10 100 ng/mL for 1, 8 or 40 min
[2] = target: eGFP-RAB11-APEX2 (UniProt P62491); assay: proximity labelling; Spatially Resolved Phosphoproteomics in HeLa cells: APEX2 biotinylation (biotin-phenol 40 min, H2O2 1 min), streptavidin beads 2 h RT, digestion, TiO2 enrichment of phosphorylated peptides, LC-MS/MS; untreated or FGF10 100 ng/mL 40 min; normalised against GFP-APEX2 samples
[3] = target: FGFR2b-HA-APEX2 (UniProt P21802); assay: as above

Substance	binding [1]	binding [2]	binding [3]
HA-FGFR2b (from UniProt P21802-3 22-822) (receptor)	binds	binds	–
RPTOR phosphorylated at S863 (from UniProt Q8N122 1-1335)	binds	binds	binds

Results are given in words; binding and its absence hold for the method and conditions named. In cells and extracts the contact can be indirect. Here binding means that the protein was enriched with, or labelled near, the bait; the list need not be complete.
